Results on six molecules are retold here after CN112028997A.

The chains behind the UniProt entries cited, without tags or fusion partners. Residues count along the entry.
UniProt P06731, residues 35-685: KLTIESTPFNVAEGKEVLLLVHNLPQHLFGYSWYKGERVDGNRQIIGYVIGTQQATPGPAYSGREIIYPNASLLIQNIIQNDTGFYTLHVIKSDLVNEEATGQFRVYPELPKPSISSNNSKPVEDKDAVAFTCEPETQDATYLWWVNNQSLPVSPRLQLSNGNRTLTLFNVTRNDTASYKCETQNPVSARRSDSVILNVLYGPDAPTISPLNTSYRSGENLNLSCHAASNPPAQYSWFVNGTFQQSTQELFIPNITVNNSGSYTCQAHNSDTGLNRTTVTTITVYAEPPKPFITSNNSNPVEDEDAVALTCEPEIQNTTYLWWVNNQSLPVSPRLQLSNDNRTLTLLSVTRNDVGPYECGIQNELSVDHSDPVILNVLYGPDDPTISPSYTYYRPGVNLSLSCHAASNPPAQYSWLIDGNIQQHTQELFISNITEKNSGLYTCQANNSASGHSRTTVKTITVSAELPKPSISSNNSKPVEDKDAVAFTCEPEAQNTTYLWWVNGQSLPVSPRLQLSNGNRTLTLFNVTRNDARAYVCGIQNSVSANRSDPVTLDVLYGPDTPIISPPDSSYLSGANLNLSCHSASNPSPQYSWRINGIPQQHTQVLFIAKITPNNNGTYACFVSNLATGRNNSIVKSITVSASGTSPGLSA

First the molecules themselves.
B1: CEACAM5纳米抗体 A94 (VHH)
VHH: EVQVVESGGGLVQPGGSLRLSCTASGRSFSSYTYGMGWFRQAPGEEREFVAGISTSGGTAAYATSVKGRFTISRDNAKNTVYLQMNSLKPEDTGVYYCAATSMTWYGNNRASEYAYWGQGTQVTVSS
B2: CEACAM5纳米抗体 B47 (VHH)
VHH: EVQLVESGGGLVQAGGSLRLSCKASGSIDMTDFMAWYRQAPGKEREIVAVIRPDGSPDYLQSVKGRFTISTDNAKRSLYLQMNSLKPEDTAVYLCNYVLQYKNYWGQGTQVTVSS
B3: CEACAM5纳米抗体 B95 (VHH)
VHH: EVQVVESGGGLVQAGGSLKLSCAASFDTFSIHAMGWYRQVPGKQRELVAAITSSGGTNYADSVKGRFTISRDNAKNTVYLQMNSLKPGDTAVYYCNEPFRLFDWGQGTQVTVSS
B4: CEACAM5纳米抗体 B80 (VHH)
VHH: QVQLVESGGGLVQPGGSLRLSCAASGFSLDYYAIGWFRQAPGKEREGVSCITSSGSTNYADSVKGRFTISRDNAKNTVYLQMNSLKPEDTAVYYCGTCFEGLGPEQVNDYWGQGTQVTVSS
B5: CEACAM5纳米抗体 B7 (VHH)
VHH: EVQLVESGGGLVPAGGSLRLSCAASISIFSIDAMGWFRQAPGKQRELVAAITTVGSANYADSVKGRFTISRDNAKNTVYLQMNSLKPEDTAVYYCNAVWGHWDWGQGTQVTVSS
B6: CEACAM5纳米抗体 B41 (VHH)
VHH: QLQLVESGGGLVQAGGSLRLSCAASGSLFRINAMAWFRQAPGKQRELVAAITSAGSTNYADFVKGRFTISADNAKNTLYLQMNSLKPEDTAVYYCNTPWPVGRDYWGQGTQVTVSS

These are yes or no findings as the source states them, for the method shown. Some results given as binding are weak or reduced against the parent protein; the word gives no strength.

The target of this assay is 重组CEACAM5蛋白 (UniProt P06731). The assay is described as follows: phage display panning and monoclonal phage ELISA on coated recombinant CEACAM5. (ELISA stands for enzyme-linked immunosorbent assay.)
On to B1, for which the binding entry was “binds”.
B2: the binding entry is listed as “binds”.
B3: the binding result is given as “binds”.
As to B4, the binding entry was “binds”.
As to B5, the binding result was “binds”.
In the case of B6, the binding entry is given as “binds”.
